Reference: PMC8093901
No constants are given. Whether binding was seen depends on the method and setting. In cells and extracts the contact can be indirect. Binding can be weak; no strength is given.

Molecular target: T1, Citrine-Bcl-xL TM (213-233) (mouse) (UniProt Q64373)
T1 sequence: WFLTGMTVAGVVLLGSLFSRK
Test: co-IP; HEK293T cells coexpressing 3Myc-IPAS with Citrine-Bcl-xL TM or Citrine-Mcl-1 TM; extracts immunoprecipitated (antibody against FLAG or GFP per methods), western blotting

Q: Which binding does the source give for “3Myc-IPAS (Inhibitory PAS domain protein)” here?
A: The binding was “binds”.
